# Experimental data as given in publication PMC6731595, “The anti-parasitic agent suramin and several of its analogues are inhibitors of the DNA binding protein Mcm10” (Open Biology, 2019).
# For at least one entry, the source does not settle the construct or the ends of the probe. At least one verdict rests on a figure or table, not on a statement of the authors. Tags and fusion partners may be left off the protein sequences shown.
# Biological target: T1, xMcm10-ID (Xenopus laevis) (UniProt Q5EAW4)
# T1 sequence (looked up): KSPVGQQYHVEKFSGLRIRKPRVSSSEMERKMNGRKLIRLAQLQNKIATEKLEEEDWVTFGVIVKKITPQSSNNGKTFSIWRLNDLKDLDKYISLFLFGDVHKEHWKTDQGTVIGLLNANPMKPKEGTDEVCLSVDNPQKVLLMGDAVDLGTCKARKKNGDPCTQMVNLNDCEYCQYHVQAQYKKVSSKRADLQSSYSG
# Assay: fluorescence polarization
# Settings: LOPAC pilot screen, Z' 0.61; FP: 20 mM Tris-HCl, 100 mM NaCl, 5% glycerol, 0.01% Triton, pH 7.5, RT 60 min, 12.5 nM probe (0.1% DMSO in HTS); recombinant protein; residues 229-427; label: 3'-6FAM; single-stranded DNA
sequence,measurement,value
ATGGTAGGCA [3'-6FAM 10-mer],binding result,binds
